# Assay results taken from the supplement of paper PMC10849652.
# Sequences of proteins named here, by UniProt entry; tags and fusion partners are left off. A change or cut given only in a name is not applied to a line headed by its entry.
# UniProt O60502: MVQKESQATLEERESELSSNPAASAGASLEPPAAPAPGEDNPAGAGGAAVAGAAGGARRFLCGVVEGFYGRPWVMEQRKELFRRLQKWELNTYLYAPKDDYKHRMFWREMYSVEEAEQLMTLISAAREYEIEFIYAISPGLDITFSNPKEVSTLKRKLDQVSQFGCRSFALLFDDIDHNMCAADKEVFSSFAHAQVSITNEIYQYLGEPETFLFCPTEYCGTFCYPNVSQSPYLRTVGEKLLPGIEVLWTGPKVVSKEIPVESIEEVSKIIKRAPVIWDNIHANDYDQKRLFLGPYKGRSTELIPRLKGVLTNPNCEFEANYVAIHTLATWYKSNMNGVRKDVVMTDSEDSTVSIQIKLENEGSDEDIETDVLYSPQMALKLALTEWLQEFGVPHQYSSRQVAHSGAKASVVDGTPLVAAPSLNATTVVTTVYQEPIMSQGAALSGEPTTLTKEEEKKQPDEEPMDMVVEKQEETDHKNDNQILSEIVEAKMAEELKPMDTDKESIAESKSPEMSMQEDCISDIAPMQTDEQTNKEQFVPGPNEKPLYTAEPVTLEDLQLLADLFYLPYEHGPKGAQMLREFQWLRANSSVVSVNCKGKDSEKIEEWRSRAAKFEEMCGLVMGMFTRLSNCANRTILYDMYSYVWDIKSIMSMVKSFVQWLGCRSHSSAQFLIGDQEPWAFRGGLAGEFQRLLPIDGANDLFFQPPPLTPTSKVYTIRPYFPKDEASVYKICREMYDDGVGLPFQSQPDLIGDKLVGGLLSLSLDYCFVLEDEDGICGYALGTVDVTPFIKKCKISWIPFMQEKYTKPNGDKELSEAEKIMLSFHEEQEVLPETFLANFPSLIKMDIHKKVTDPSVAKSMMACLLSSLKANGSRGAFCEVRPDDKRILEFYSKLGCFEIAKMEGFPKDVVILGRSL
# UniProt Q8N1F7: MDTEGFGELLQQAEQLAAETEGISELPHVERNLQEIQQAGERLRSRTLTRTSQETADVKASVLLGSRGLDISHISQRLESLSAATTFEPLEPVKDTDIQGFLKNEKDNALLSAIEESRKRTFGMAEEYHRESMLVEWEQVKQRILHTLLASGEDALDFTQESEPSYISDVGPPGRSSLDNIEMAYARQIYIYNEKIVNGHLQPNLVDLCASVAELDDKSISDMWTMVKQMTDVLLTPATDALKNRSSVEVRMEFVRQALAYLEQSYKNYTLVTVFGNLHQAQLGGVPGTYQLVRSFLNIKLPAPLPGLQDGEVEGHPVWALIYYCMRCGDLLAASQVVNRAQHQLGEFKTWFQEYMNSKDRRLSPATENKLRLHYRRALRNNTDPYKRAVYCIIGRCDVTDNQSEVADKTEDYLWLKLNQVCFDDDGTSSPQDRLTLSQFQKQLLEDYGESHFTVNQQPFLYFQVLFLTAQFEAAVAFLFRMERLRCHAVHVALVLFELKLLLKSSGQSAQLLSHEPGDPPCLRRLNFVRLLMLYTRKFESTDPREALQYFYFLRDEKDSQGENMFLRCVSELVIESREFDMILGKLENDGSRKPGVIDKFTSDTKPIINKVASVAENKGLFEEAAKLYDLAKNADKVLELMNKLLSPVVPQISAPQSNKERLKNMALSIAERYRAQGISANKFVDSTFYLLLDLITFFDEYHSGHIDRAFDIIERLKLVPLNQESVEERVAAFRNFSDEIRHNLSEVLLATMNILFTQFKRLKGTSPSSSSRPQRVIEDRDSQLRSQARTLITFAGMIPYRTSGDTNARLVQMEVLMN
# UniProt Q9H074: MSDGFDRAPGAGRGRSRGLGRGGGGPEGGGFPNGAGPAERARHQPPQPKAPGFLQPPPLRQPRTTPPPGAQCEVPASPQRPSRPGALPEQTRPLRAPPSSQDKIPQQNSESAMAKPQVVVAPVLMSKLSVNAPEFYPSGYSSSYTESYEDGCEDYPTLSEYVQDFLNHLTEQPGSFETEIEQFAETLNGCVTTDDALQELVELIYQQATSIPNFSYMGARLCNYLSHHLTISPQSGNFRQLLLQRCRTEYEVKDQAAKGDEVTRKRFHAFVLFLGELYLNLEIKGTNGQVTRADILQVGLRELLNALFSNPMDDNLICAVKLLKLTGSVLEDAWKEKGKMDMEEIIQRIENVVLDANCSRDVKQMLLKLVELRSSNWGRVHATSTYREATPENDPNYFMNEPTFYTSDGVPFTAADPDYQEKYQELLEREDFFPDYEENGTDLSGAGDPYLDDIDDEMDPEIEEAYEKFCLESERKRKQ
# UniProt P37198: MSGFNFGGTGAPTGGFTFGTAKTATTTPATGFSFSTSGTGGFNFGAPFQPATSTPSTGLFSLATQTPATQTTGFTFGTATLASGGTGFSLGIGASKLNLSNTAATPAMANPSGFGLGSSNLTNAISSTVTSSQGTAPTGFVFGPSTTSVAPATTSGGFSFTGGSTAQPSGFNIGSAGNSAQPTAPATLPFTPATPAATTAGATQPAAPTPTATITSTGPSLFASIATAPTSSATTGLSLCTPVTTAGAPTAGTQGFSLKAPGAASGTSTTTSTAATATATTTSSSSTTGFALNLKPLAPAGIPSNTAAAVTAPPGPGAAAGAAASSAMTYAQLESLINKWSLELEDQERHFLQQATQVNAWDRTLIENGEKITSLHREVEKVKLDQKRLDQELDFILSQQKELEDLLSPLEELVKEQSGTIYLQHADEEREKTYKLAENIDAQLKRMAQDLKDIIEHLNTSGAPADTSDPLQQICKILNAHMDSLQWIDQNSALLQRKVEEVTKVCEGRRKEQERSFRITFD
# UniProt O75459: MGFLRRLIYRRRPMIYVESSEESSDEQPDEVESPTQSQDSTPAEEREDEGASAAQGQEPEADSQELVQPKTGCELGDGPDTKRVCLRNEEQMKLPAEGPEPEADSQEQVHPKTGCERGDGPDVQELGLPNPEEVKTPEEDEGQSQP
# UniProt Q8N6M0: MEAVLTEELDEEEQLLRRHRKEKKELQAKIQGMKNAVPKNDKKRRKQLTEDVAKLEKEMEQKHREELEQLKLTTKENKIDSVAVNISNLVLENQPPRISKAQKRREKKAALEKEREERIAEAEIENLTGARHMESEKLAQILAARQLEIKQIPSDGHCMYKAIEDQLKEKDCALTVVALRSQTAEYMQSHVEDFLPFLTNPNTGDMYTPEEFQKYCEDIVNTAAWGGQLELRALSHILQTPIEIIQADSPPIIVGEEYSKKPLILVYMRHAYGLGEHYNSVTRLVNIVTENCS
# UniProt Q96CV9, whole entry, looked up: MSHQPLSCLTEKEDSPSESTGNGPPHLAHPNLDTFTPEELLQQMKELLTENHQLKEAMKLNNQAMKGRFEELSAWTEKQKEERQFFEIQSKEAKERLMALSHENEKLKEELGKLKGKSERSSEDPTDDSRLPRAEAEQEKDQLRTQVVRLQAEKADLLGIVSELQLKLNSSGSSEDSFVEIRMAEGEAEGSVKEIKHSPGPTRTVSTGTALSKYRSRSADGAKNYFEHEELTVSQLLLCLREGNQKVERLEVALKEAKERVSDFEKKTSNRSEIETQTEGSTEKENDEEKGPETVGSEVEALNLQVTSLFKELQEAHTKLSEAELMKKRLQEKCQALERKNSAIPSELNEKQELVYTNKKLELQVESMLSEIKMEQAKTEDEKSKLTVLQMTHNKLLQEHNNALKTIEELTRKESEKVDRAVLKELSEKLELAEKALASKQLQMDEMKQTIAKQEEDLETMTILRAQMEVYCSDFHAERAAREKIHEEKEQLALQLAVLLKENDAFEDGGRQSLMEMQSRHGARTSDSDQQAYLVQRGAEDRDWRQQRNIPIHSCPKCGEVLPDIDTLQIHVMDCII
# UniProt Q13416: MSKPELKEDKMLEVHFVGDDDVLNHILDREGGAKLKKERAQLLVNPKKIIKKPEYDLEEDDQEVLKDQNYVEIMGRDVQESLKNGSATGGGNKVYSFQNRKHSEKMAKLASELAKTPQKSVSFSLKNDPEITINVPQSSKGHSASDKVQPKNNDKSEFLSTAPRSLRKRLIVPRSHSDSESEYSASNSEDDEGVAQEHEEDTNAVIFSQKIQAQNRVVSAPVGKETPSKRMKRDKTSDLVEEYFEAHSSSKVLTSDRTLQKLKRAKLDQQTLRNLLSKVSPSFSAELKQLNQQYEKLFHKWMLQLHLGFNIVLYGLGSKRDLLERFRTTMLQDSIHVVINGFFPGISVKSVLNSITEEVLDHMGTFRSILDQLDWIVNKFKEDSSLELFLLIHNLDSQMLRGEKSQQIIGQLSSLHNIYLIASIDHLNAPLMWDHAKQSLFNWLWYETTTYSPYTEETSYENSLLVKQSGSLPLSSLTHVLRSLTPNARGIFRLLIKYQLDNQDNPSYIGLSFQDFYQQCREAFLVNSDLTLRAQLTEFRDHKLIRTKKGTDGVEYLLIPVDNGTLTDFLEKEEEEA
# UniProt O75147: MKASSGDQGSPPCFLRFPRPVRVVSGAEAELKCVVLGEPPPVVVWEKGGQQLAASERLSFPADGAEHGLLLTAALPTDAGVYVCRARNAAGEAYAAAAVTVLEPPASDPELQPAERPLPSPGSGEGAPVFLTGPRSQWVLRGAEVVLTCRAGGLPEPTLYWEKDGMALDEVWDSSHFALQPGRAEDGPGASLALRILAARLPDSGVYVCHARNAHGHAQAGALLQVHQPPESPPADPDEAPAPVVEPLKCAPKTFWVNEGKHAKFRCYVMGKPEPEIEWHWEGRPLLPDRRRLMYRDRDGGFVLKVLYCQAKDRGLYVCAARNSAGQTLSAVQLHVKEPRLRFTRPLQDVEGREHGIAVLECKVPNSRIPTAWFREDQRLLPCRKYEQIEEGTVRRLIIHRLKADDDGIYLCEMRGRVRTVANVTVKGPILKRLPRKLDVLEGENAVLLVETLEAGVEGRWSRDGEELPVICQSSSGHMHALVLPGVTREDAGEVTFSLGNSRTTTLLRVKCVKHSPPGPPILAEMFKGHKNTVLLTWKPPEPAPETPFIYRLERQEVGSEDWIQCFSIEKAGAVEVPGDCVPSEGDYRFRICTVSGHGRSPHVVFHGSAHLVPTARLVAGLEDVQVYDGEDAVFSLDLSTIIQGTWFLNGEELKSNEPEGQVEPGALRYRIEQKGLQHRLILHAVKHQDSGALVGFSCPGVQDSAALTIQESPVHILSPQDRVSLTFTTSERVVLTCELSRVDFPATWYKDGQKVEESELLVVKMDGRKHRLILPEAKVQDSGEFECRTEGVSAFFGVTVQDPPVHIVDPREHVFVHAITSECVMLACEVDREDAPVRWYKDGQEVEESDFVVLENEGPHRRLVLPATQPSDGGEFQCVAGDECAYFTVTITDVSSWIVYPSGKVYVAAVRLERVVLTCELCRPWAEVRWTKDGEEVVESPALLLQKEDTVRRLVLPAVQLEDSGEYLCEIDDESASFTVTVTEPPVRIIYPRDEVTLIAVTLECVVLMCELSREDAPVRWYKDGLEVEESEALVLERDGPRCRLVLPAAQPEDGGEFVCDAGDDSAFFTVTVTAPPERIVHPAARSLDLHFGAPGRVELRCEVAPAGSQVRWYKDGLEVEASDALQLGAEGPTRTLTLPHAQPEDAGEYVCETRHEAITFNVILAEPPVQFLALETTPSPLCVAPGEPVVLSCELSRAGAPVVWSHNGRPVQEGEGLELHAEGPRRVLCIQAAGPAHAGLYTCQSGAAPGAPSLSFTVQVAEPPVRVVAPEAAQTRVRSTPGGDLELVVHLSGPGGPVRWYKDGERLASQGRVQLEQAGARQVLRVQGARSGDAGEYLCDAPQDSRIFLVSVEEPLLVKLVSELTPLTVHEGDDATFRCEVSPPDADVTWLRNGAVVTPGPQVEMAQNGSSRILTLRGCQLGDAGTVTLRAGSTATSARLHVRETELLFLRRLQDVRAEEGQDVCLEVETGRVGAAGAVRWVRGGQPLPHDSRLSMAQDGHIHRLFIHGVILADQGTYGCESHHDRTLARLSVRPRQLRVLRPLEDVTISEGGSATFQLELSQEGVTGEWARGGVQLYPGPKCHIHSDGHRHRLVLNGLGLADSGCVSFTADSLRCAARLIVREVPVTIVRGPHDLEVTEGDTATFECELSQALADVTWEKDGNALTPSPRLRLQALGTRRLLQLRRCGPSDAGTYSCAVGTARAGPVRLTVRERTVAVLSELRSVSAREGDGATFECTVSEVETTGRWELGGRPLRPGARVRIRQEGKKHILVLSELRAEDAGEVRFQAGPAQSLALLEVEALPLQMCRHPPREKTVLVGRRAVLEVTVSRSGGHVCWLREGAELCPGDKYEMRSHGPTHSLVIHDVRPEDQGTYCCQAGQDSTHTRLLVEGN
# UniProt Q6N063: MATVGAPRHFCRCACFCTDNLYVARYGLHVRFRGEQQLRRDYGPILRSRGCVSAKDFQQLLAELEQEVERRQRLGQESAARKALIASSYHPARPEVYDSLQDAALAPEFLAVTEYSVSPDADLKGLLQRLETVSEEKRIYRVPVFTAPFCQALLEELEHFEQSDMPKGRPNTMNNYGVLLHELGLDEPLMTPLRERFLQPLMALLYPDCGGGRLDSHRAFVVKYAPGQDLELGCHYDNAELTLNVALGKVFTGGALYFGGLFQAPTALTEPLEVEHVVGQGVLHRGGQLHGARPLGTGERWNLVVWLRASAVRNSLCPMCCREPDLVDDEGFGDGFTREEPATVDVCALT
# The list shows a part of the results.
# Columns and labels:
# Test in all cases: log2 fold change, soluble protein after heating vs DMSO (PISA); higher = thermal stabilisation; K562 lysate, 10 uM; active = over 0.2 and 3.5 SD of the protein, either way, in both replicates (recomputed)
# lapatinib = compound: CS(=O)(=O)CCNCc1ccc(-c2ccc3ncnc(Nc4ccc(OCc5cccc(F)c5)c(Cl)c4)c3c2)o1 [lapatinib]
# In short: (§1)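 The values are log-two fold changes in thermal stability compared with solvent controls and come from duplicates. They were obtained by TMTpro 16plex LC-MS/MS, with channel sums equalised, on the supernatant after 21,000xg for 90 min. That supernatant came from crude K562 extract at 1 mg/mL protein treated with 10 μM compound for 30 min, heated for 3 min across 48°C-58°C, pooled and brought to 0.5% NP-40 at 4°C.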
# pictilisib = compound: CS(=O)(=O)N1CCN(Cc2cc3nc(-c4cccc5[nH]ncc45)nc(N4CCOCC4)c3s2)CC1 [pictilisib]
# In short: as §1
# crizotinib = compound: C[C@@H](Oc1cc(-c2cnn(C3CCNCC3)c2)cnc1N)c1c(Cl)ccc(F)c1Cl [crizotinib]
# In short: as §1
# [1] = compound: C[C@H](C1=CC=C(C=C1)C(=O)NC2=C3C=CNC3=NC=C2)N
# In short: as §1
# duvelisib = compound: C[C@H](Nc1ncnc2nc[nH]c12)c1cc2cccc(Cl)c2c(=O)n1-c1ccccc1 [duvelisib]
# In short: as §1
# gandotinib = compound: Cc1cc(Nc2cc(CN3CCOCC3)c3nc(C)c(Cc4ccc(Cl)cc4F)n3n2)n[nH]1 [gandotinib]
# In short: as §1
# tozasertib = compound: Cc1cc(Nc2cc(N3CCN(C)CC3)nc(Sc3ccc(NC(=O)C4CC4)cc3)n2)n[nH]1 [tozasertib]
# In short: as §1
# doramapimod = compound: Cc1ccc(-n2nc(C(C)(C)C)cc2NC(=O)Nc2ccc(OCCN3CCOCC3)c3ccccc23)cc1 [doramapimod]
# In short: as §1
# bafetinib = compound: Cc1ccc(NC(=O)c2ccc(CN3CC[C@H](N(C)C)C3)c(C(F)(F)F)c2)cc1Nc1nccc(-c2cncnc2)n1 [bafetinib]
# In short: as §1
# [2] = compound: Cc1cccc(CC(=O)N2CCc3c2ccc(-c2cn(C)c4ncnc(N)c24)c3F)n1
# In short: as §1
Target,log2 fold change (lapatinib),log2 fold change (pictilisib),log2 fold change (crizotinib),log2 fold change [1],log2 fold change (duvelisib),log2 fold change (gandotinib),log2 fold change (tozasertib),log2 fold change (doramapimod),log2 fold change (bafetinib),log2 fold change [2]
PAK4 (UniProt O96013),inactive: -0.147,inactive: 0.139,inactive: 0.037,inactive: 0.163,inactive: 0.05,active: 0.709,inactive: 0.18,inactive: -0.236,inactive: -0.011,inactive: -0.12
PAPOLA (UniProt P51003),inactive: -0.014,inactive: -0.032,inactive: 0.018,inactive: -0.027,inactive: -0.008,inactive: -0.044,inactive: 0.004,inactive: 0.022,inactive: -0.021,inactive: -0.006
OTC (UniProt P00480),inactive: -0.118,inactive: -0.026,inactive: -0.273,active: -4.33,inactive: 0.159,inactive: -0.003,inactive: 0.161,inactive: 0.168,inactive: -0.412,inactive: 0.377
NUP214 (UniProt P35658),inactive: 0.011,inactive: -0.028,inactive: 0.01,inactive: -0.08,inactive: -0.011,inactive: 0.006,inactive: -0.021,inactive: -0.027,inactive: -0.012,inactive: 0.1
OGA (UniProt O60502),inactive: -0.012,inactive: -0.019,inactive: -0.012,inactive: 0.026,inactive: -0.001,inactive: -0.054,inactive: -0.007,inactive: -0.004,inactive: 0.002,inactive: -0.018
NUP160 (UniProt Q12769),inactive: 0.004,inactive: -0.046,inactive: -0.028,inactive: 0.003,inactive: -0.007,inactive: -0.102,inactive: 0.015,inactive: 0.032,inactive: -0.059,inactive: -0.007
NUP93 (UniProt Q8N1F7),inactive: -0.011,inactive: -0.029,inactive: -0.03,inactive: -0.027,inactive: -0.03,inactive: -0.158,inactive: 0.015,inactive: 0.022,inactive: -0.054,inactive: 0.07
PAIP1 (UniProt Q9H074),inactive: 0.008,inactive: -0.038,inactive: 0.028,inactive: -0.061,inactive: -0.028,inactive: 0.038,inactive: 0.009,inactive: -0.007,inactive: -0.02,inactive: 0.007
OCIAD1 (UniProt Q9NX40),inactive: 0.003,inactive: -0.053,inactive: 0.022,inactive: -0.015,inactive: -0.013,inactive: 0.019,inactive: -0.025,inactive: -0.031,inactive: 0.001,inactive: -0.086
NUP62 (UniProt P37198),inactive: 0.026,inactive: 0.026,inactive: 0.074,inactive: -0.063,inactive: -0.032,inactive: -0.03,inactive: 0.053,inactive: -0.034,inactive: 0.041,inactive: 0.029
P4HA2 (UniProt O15460),inactive: 0.013,inactive: 0.029,inactive: -0.014,inactive: 0.045,inactive: -0.015,inactive: -0.027,inactive: 0.009,inactive: -0.035,inactive: -0.014,inactive: 0.026
PAGE1 (UniProt O75459),inactive: 0.068,inactive: 0.07,inactive: 0.062,inactive: 0.001,inactive: 0.083,inactive: 0.013,inactive: -0.025,inactive: -0.041,inactive: 0.03,inactive: -0.046
OPA3 (UniProt Q9H6K4),inactive: 0.008,inactive: -0.014,inactive: -0.03,inactive: 0.045,inactive: -0.03,inactive: 0.012,inactive: -0.174,inactive: -0.028,inactive: -0.091,inactive: 0.089
NUP210 (UniProt Q8TEM1),inactive: -0.074,inactive: -0.076,inactive: -0.028,inactive: -0.034,inactive: 0.013,inactive: -0.08,inactive: -0.012,inactive: -0.017,inactive: -0.007,inactive: 0.044
PABPC4 isoform 3 (UniProt Q13310),inactive: 0,inactive: -0.006,inactive: 0.072,inactive: 0.02,inactive: 0.033,inactive: -0.04,inactive: 0.008,inactive: -0.04,inactive: -0.013,inactive: -0.023
NUP188 (UniProt Q5SRE5),inactive: -0.063,inactive: -0.04,inactive: -0.05,inactive: -0.024,inactive: 0.004,inactive: -0.127,inactive: -0.012,inactive: -0.034,inactive: -0.031,inactive: 0.039
PAFAH2 (UniProt Q99487),inactive: 0.026,inactive: -0.019,inactive: -0.003,inactive: -0.027,inactive: 0.034,inactive: 0.164,inactive: 0.121,inactive: -0.003,inactive: -0.159,inactive: 0.167
P4HB (UniProt P07237),inactive: 0.027,inactive: 0.035,inactive: 0.105,inactive: 0.041,inactive: 0.02,inactive: -0.015,inactive: 0,inactive: -0.005,inactive: 0.056,inactive: -0.045
ORC4 (UniProt O43929),inactive: -0.023,inactive: -0.021,inactive: -0.092,inactive: 0.009,inactive: -0.02,inactive: -0.161,inactive: -0.054,inactive: -0.036,inactive: -0.069,inactive: -0.005
PARD3 (UniProt Q8TEW0),inactive: -0.143,inactive: -0.155,inactive: -0.096,inactive: 0.014,inactive: -0.102,inactive: 0.122,inactive: 0.064,inactive: -0.058,inactive: -0.054,inactive: 0.069
OTUD6B (UniProt Q8N6M0),inactive: 0.007,inactive: -0.045,inactive: 0.025,inactive: 0.113,inactive: -0.026,inactive: -0.106,inactive: 0.101,inactive: -0.015,inactive: -0.026,inactive: -0.07
OTUD7B (UniProt Q6GQQ9),inactive: 0.033,inactive: 0.025,inactive: -0.099,inactive: 0.006,inactive: -0.041,inactive: 0.032,inactive: -0.01,inactive: -0.012,inactive: -0.003,inactive: 0.003
PAK2 (UniProt Q13177),inactive: -0.005,inactive: 0.005,inactive: 0.054,inactive: 0.03,inactive: 0.003,inactive: -0.02,inactive: -0.03,inactive: -0.025,inactive: 0.035,inactive: -0.071
OPTN (UniProt Q96CV9),inactive: -0.015,inactive: -0.026,inactive: 0.017,inactive: -0.014,inactive: 0.034,inactive: 0.009,inactive: -0.005,inactive: -0.003,inactive: -0.035,inactive: 0.021
ORC2 (UniProt Q13416),inactive: 0.016,inactive: -0.049,inactive: -0.074,inactive: 0.063,inactive: -0.068,inactive: -0.087,inactive: -0.017,inactive: -0.007,inactive: -0.034,inactive: 0.011
OBSL1 (UniProt O75147),inactive: -0.037,inactive: -0.005,inactive: 0.045,inactive: -0.038,inactive: 0.03,inactive: 0.017,inactive: 0.015,inactive: 0.098,inactive: -0.003,inactive: 0.036
OGFOD2 (UniProt Q6N063),inactive: 0.034,inactive: -0.031,inactive: -0.017,inactive: -0.029,inactive: 0.045,inactive: -0.016,inactive: 0.019,inactive: -0.013,inactive: -0.09,inactive: 0.032
PACC1 (UniProt Q9H813),inactive: 0.033,inactive: -0.144,inactive: -0.001,inactive: -0.084,inactive: -0.148,inactive: 0.009,inactive: 0.021,inactive: -0.103,inactive: 0.304,inactive: -0.037
OSBPL6 isoform 5 (UniProt Q9BZF3),inactive: 0.077,inactive: 0.008,active: 0.367,inactive: -0.003,inactive: -0.003,inactive: 0.033,inactive: 0.036,inactive: 0.005,inactive: 0.32,inactive: 0.004

# An excerpt of these results, bar-delimited.
Target | log2 fold change (lapatinib) | log2 fold change (pictilisib) | log2 fold change (crizotinib) | log2 fold change [1] | log2 fold change (duvelisib) | log2 fold change (gandotinib) | log2 fold change (tozasertib) | log2 fold change (doramapimod) | log2 fold change (bafetinib) | log2 fold change [2]
PABPC4 isoform 3 (UniProt Q13310) | inactive: 0 | inactive: -0.006 | inactive: 0.072 | inactive: 0.02 | inactive: 0.033 | inactive: -0.04 | inactive: 0.008 | inactive: -0.04 | inactive: -0.013 | inactive: -0.023
NUP188 (UniProt Q5SRE5) | inactive: -0.063 | inactive: -0.04 | inactive: -0.05 | inactive: -0.024 | inactive: 0.004 | inactive: -0.127 | inactive: -0.012 | inactive: -0.034 | inactive: -0.031 | inactive: 0.039
